Results taken from US6410558B1, “Fungicides for the control of take-all disease of plants” (Monsanto Technology LLC, priority 1991, dated 2002).
Some of these results come from one statement about several compounds together.

system: Gg; assay: Field Tests: seed treatment of wheat and barley in previously infested fields; assay type: in vivo, Gaeumannomyces graminis; settings: mixed with wheat and barley seed at 0.01 to 50 g active ingredient per kg of seed

Structure (SMILES)	incidence of Gg in previously infested fields compared to check fields seeded with untreated seed
CCNC(=O)c1c(-c2ccccc2)cccc1[Si](C)(C)C [Example 221, N-Ethyl-2-phenyl-6-(trimethylsilyl)benzamide]	reduce the incidence of Gg
C=C(C)CNC(=O)c1c(Cl)cccc1[Si](C)(C)C [Example 147, 2-Chloro-N-(2-methyl-2-propenyl)-6-(trimethylsilyl)benzamide]	reduce the incidence of Gg
CCNC(=O)c1c(Cl)cc(C(C)(C)C)cc1[Si](C)(C)C [Example 235, 2-Chloro-4-(1,1-dimethylethyl)-N-ethyl-6-(trimethylsilyl)benzamide]	reduce the incidence of Gg
CCN(CC)C(=O)c1c(Cl)cccc1C[Si](C)(C)C [Example 166, 2-Chloro-N,N-diethyl-6-[(trimethylsilyl)methyl]benzamide]	reduce the incidence of Gg
CN(C(=O)c1cccc(F)c1[Si](C)(C)C)C(C)(C)C [Example 5, N-(1,1-Dimethylethyl)-3-fluoro-N-methyl-2-(trimethylsilyl)benzamide]	reduce the incidence of Gg
CC(C)CSC(=O)c1c(Cl)cccc1[Si](C)(C)C [Example 81, 2-Chloro-6-(trimethylsilyl)-benzenecarbothioic acid, S-(2-methylpropyl) ester]	reduce the incidence of Gg
COc1ccccc1NC(=O)c1c(Cl)cccc1[Si](C)(C)C [Example 159, 2-Chloro-N-(2-methoxyphenyl)-6-(trimethylsilyl)benzamide]	reduce the incidence of Gg
CCNC(=O)c1c(Cl)cccc1OC(C)(C)C [Example 89, N-Ethyl-2-chloro-6-(1,1-dimethylethoxy)benzamide]	reduce the incidence of Gg
C[Si](C)(C)c1cccc(Cl)c1C(=O)Nc1ccccc1 [Example 16, 2-Chloro-N-phenyl-6-(trimethylsilyl)-benzamide]	reduce the incidence of Gg
CCc1ccc([Si](C)(C)C)c(C(=O)N(CC)CC)c1Cl [Example 85, N,N-Diethyl-2-chloro-3-ethyl-6-(trimethylsilyl)benzamide]	reduce the incidence of Gg
CCN(CC)C(=O)c1c(C(=O)OC(C)C)ccc(F)c1[Si](C)(C)C [Example 43, 2-[(Diethylamino)carbonyl]-4-fluoro-3-(trimethylsilyl)benzoic acid, 1-methylethyl ester]	reduce the incidence of Gg
CCNC(=O)C1=CSC(Cl)N1[Si](C)(C)C (stereo not shown) [Example 283, 2-Chloro-N-ethyl-3-(trimethylsilyl)-4-thiazolecarboxamide]	reduce the incidence of Gg
CCNC(=O)Nc1c(Cl)cccc1[Si](C)(C)C [Example 110, N-[2-Chloro-6-(trimethylsilyl)phenyl]-N′-ethylurea]	reduce the incidence of Gg
C[Si](C)(C)c1cccc(Cl)c1C(=O)NCCBr [Example 153, N-(2-Bromoethyl)-2-chloro-6-(trimethylsilyl)benzamide]	reduce the incidence of Gg
CCNC(=O)c1c([Si](C)(C)C)ccc([N+](=O)[O-])c1Cl [Example 216, 2-Chloro-N-ethyl-3-nitro-6-(trimethylsilyl)benzamide]	reduce the incidence of Gg
C[Si](C)(C)c1cccc(Cl)c1C(=O)NCCCCl [Example 30, 2-Chloro-N-(3-chloropropyl)-6-(trimethylsilyl)benzamide]	reduce the incidence of Gg
